Results from publication PMC8893695, “The microprotein Nrs1 rewires the G1/S transcriptional machinery during nitrogen limitation in budding yeast” (PLoS Biology, 2022).
No constants are given. Whether binding was seen depends on the method and setting. For part of these data: Binding seen in cells or lysates may run through a third protein. Some entries that bind do so weakly or less than the wild type. Sequences can lack the tags named with a protein.

T1: Whi5^HA (S. cerevisiae) (UniProt Q12416)
T1 sequence: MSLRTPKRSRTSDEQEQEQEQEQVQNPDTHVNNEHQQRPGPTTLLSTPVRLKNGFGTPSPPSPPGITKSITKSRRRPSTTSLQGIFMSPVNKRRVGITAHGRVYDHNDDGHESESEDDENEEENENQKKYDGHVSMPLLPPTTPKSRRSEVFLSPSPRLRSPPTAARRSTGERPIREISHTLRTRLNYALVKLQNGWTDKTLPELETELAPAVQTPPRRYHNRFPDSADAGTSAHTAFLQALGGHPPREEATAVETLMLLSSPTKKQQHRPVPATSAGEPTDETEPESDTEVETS

T2: Whi5^13MYC (S. cerevisiae) (UniProt Q12416)
T2 sequence: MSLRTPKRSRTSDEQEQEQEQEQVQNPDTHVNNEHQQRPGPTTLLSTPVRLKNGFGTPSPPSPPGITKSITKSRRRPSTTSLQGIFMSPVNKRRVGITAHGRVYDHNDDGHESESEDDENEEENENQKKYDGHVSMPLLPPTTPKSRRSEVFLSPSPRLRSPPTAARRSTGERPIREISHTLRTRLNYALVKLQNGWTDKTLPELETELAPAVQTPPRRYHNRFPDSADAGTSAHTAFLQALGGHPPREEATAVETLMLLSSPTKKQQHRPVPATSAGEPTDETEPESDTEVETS

T3: ^FLAGMbp1 (S. cerevisiae) (UniProt P39678)
T3 sequence: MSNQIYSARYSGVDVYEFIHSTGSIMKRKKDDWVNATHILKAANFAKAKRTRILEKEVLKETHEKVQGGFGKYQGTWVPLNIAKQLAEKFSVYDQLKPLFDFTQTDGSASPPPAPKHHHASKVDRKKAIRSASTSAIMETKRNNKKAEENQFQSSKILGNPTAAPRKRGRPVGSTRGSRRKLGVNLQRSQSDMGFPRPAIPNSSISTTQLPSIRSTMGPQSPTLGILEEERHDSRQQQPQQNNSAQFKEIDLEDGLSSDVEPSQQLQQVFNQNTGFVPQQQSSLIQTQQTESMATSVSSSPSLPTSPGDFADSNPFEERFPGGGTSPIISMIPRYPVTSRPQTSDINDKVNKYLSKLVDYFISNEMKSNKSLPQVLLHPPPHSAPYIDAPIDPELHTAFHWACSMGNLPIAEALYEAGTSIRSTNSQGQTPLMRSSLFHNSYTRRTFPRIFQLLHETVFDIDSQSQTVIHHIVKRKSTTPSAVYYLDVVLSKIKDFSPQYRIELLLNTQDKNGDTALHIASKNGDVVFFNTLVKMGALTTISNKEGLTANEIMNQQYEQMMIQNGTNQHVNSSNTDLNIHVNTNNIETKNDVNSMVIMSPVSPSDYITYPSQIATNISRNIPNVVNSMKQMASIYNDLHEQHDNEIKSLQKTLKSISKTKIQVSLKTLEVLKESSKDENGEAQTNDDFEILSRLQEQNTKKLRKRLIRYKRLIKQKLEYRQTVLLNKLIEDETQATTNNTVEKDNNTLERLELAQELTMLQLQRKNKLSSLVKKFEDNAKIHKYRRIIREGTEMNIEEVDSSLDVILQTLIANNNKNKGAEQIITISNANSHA

T4: ^FLAGSwi4 (S. cerevisiae) (UniProt P25302)
T4 sequence: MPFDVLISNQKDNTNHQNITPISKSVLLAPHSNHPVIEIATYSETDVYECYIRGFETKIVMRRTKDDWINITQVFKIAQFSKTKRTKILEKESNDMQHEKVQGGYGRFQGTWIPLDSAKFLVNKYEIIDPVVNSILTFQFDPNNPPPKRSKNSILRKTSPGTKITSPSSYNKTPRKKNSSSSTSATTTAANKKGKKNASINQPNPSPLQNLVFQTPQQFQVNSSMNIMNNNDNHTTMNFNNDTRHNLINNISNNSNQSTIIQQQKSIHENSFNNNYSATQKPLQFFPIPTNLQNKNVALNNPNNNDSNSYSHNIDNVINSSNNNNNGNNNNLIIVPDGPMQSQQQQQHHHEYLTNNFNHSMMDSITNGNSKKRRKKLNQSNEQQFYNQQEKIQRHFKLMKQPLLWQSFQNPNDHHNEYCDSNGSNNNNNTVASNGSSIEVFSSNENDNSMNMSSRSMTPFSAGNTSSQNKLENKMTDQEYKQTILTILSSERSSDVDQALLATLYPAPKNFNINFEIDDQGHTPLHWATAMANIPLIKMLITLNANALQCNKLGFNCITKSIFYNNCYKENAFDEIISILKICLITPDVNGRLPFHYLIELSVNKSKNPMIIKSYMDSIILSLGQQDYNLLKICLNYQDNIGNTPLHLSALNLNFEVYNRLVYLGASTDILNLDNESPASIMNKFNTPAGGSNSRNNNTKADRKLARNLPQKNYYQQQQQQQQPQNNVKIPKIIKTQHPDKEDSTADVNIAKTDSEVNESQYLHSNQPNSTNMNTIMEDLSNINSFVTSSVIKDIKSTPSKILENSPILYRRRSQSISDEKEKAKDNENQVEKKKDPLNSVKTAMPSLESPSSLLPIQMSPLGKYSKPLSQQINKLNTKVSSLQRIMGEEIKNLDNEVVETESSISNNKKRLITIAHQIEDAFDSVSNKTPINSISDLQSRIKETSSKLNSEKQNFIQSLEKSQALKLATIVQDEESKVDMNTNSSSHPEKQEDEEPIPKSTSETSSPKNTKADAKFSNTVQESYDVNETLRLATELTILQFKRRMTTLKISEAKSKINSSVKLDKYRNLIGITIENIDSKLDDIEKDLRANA


Assays:
Whi5^HA (S. cerevisiae) = biological target: T1, Whi5^HA (S. cerevisiae); assay: co-IP; Whi5^HA immunoprecipitates from strains with empty vector or GAL1-NRS1, induced with galactose for 6 hours; blots for Whi5^HA, Swi4 and Swi6
[1] = biological target: T2, Whi5^13MYC (S. cerevisiae); assay: co-IP; Nrs1^13MYC or Whi5^13MYC captured on anti-MYC resin from cultures untreated or treated with 200 nM rapamycin for 3 h; blots with polyclonal anti-Swi4 and anti-Swi6
[2] = biological target: T3, ^FLAGMbp1 (S. cerevisiae); assay: co-purification on anti-FLAG resin; complexes purified on anti-FLAG M2 resin from insect cells co-infected with baculovirus constructs, eluted with excess FLAG peptide
[3] = biological target: T4, ^FLAGSwi4 (S. cerevisiae); assay: as above

| binding (Whi5^HA (S. cerevisiae)) | binding [1] | binding [2] | binding [3] | Binder |
| --- | --- | --- | --- | --- |
| binds | binds | – | – | Swi4 (protein, UniProt P25302 1-1093) MPFDVLISNQKDNTNHQNITPISKSVLLAPHSNHPVIEIATYSETDVYECYIRGFETKIVMRRTKDDWINITQVFKIAQFSKTKRTKILEKESNDMQHEKVQGGYGRFQGTWIPLDSAKFLVNKYEIIDPVVNSILTFQFDPNNPPPKRSKNSILRKTSPGTKITSPSSYNKTPRKKNSSSSTSATTTAANKKGKKNASINQPNPSPLQNLVFQTPQQFQVNSSMNIMNNNDNHTTMNFNNDTRHNLINNISNNSNQSTIIQQQKSIHENSFNNNYSATQKPLQFFPIPTNLQNKNVALNNPNNNDSNSYSHNIDNVINSSNNNNNGNNNNLIIVPDGPMQSQQQQQHHHEYLTNNFNHSMMDSITNGNSKKRRKKLNQSNEQQFYNQQEKIQRHFKLMKQPLLWQSFQNPNDHHNEYCDSNGSNNNNNTVASNGSSIEVFSSNENDNSMNMSSRSMTPFSAGNTSSQNKLENKMTDQEYKQTILTILSSERSSDVDQALLATLYPAPKNFNINFEIDDQGHTPLHWATAMANIPLIKMLITLNANALQCNKLGFNCITKSIFYNNCYKENAFDEIISILKICLITPDVNGRLPFHYLIELSVNKSKNPMIIKSYMDSIILSLGQQDYNLLKICLNYQDNIGNTPLHLSALNLNFEVYNRLVYLGASTDILNLDNESPASIMNKFNTPAGGSNSRNNNTKADRKLARNLPQKNYYQQQQQQQQPQNNVKIPKIIKTQHPDKEDSTADVNIAKTDSEVNESQYLHSNQPNSTNMNTIMEDLSNINSFVTSSVIKDIKSTPSKILENSPILYRRRSQSISDEKEKAKDNENQVEKKKDPLNSVKTAMPSLESPSSLLPIQMSPLGKYSKPLSQQINKLNTKVSSLQRIMGEEIKNLDNEVVETESSISNNKKRLITIAHQIEDAFDSVSNKTPINSISDLQSRIKETSSKLNSEKQNFIQSLEKSQALKLATIVQDEESKVDMNTNSSSHPEKQEDEEPIPKSTSETSSPKNTKADAKFSNTVQESYDVNETLRLATELTILQFKRRMTTLKISEAKSKINSSVKLDKYRNLIGITIENIDSKLDDIEKDLRANA |
| binds | binds | – | – | Swi6 (protein, UniProt P09959 1-803) MALEEVVRYLGPHNEIPLTLTRDSETGHFLLKHFLPILQQYHDTGNINETNPDSFPTDEERNKLLAHYGIAVNTDDRGELWIELEKCLQLLNMLNLFGLFQDAFEFEEPETDQDEEDPSHSKLPENKTKSENSKDNISSKRINNLQDMSLDSDAHRELGSPLKKLKIDTSVIDAESDSTPNTARGKPNDDINKGPSGDNENNGTDDNDRTAGPIITFTHDLTSDFLSSPLKIMKALPSPVVNDNEQKMKLEAFLQRLLFPEIQEMPTSLNNDSSNRNSEGGSSNQQQQHVSFDSLLQEVNDAFPNTQLNLNIPVDEHGNTPLHWLTSIANLELVKHLVKHGSNRLYGDNMGESCLVKAVKSVNNYDSGTFEALLDYLYPCLILEDSMNRTILHHIIITSGMTGCSAAAKYYLDILMGWIVKKQNRPIQSGTNEKESKPNDKNGERKDSILENLDLKWIIANMLNAQDSNGDTCLNIAARLGNISIVDALLDYGADPFIANKSGLRPVDFGAGTSKLQNTNGGDENSKMVSKGDYDGQKNGKAKKIRSQLLKNPPETTSLINDVQNLLNSISKDYENETVQYNEKLEKLHKELNEQREELANSREQLANVKQLKDEYSLMQEQLTNLKAGIEEEEESFREESKKLGIIADESSGIDWDSSEYDADEPFKVEFLSDFLEDKLQKNYEGDISKLLEAESKEQIMEQIRNQLPAEKIQSMLPPTVLLKARINAYKRNDKHLTNVLDTISTKQSELENKFRRVLSLCLKIDENKVDNMLDGLLQAISSEDPQDIDTDEMQDFLKKHAS |
| – | – | binds | binds | Swi6 (recombinant, insect cells) (protein, UniProt P09959 1-803) MALEEVVRYLGPHNEIPLTLTRDSETGHFLLKHFLPILQQYHDTGNINETNPDSFPTDEERNKLLAHYGIAVNTDDRGELWIELEKCLQLLNMLNLFGLFQDAFEFEEPETDQDEEDPSHSKLPENKTKSENSKDNISSKRINNLQDMSLDSDAHRELGSPLKKLKIDTSVIDAESDSTPNTARGKPNDDINKGPSGDNENNGTDDNDRTAGPIITFTHDLTSDFLSSPLKIMKALPSPVVNDNEQKMKLEAFLQRLLFPEIQEMPTSLNNDSSNRNSEGGSSNQQQQHVSFDSLLQEVNDAFPNTQLNLNIPVDEHGNTPLHWLTSIANLELVKHLVKHGSNRLYGDNMGESCLVKAVKSVNNYDSGTFEALLDYLYPCLILEDSMNRTILHHIIITSGMTGCSAAAKYYLDILMGWIVKKQNRPIQSGTNEKESKPNDKNGERKDSILENLDLKWIIANMLNAQDSNGDTCLNIAARLGNISIVDALLDYGADPFIANKSGLRPVDFGAGTSKLQNTNGGDENSKMVSKGDYDGQKNGKAKKIRSQLLKNPPETTSLINDVQNLLNSISKDYENETVQYNEKLEKLHKELNEQREELANSREQLANVKQLKDEYSLMQEQLTNLKAGIEEEEESFREESKKLGIIADESSGIDWDSSEYDADEPFKVEFLSDFLEDKLQKNYEGDISKLLEAESKEQIMEQIRNQLPAEKIQSMLPPTVLLKARINAYKRNDKHLTNVLDTISTKQSELENKFRRVLSLCLKIDENKVDNMLDGLLQAISSEDPQDIDTDEMQDFLKKHAS |
